Reference: PubChem BioAssay AID1259425 (University of Nebraska Medical Center, 2018)
Purpose: 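Compare each knockdown with KSR1 silencing using changes in marker transcripts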 (primary screen). System: HCT116 human colon cancer cells. Knock-down reagent: siRNA pool against human genes, 50 nM siRNA. Detection: 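mRNA of six signature genes measured together by branched-DNA assay after 50 nM siRNA pool, blank removed, divided by geometric mean of two housekeeping genes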. Reading the numbers: BNIP3L mRNA: higher = more BNIP3L transcript after knockdown; NDRG1 mRNA: higher = more NDRG1 transcript after knockdown.
In all, the deposit lists about 14,000 reagents; shown is a part drawn at random. Not all columns of the deposit are shown. Not given: the time to read-out.

no.	gene knocked down	BNIP3L mRNA, set 1	NDRG1 mRNA, set 1
1	DNAJC10 (GeneID 54431)	0.101	0.249
2	TCF15 (GeneID 6939)	0.148	0.115
3	SCNN1B (GeneID 6338)	0.214	0.18
4	PLEKHA1 (GeneID 59338)	0.0907	0.0571
5	DCLK2 (GeneID 166614)	0.291	0.104
6	HOXD3 (GeneID 3232)	0.173	0.155
7	HYAL4 (GeneID 23553)	0.0198	0.159
8	MRGPRX3 (GeneID 117195)	0.326	0.182
9	FAM30A (GeneID 9834)	0.0301	0.255
10	OR2W1 (GeneID 26692)	0.283	0.0714
11	PLCE1 (GeneID 51196)	0.127	0.173
12	BCAT1 (GeneID 586)	0.118	0.117
13	NDUFB8 (GeneID 4714)	0.105	0.365
14	LIN7A (GeneID 8825)	0.0705	0.092
15	TACSTD2 (GeneID 4070)	0.0698	0.181
16	GABRG3 (GeneID 2567)	0.0861	0.584
17	MAB21L4 (GeneID 79919)	0.119	0.363
18	EVL (GeneID 51466)	0.0822	0.214
19	ARMC6 (GeneID 93436)	0.0795	0.114
20	NAE1 (GeneID 8883)	0.108	0.416
21	RHBDL1 (GeneID 9028)	0.104	0.155
22	SLCO2A1 (GeneID 6578)	0.177	0.213
23	SNX9 (GeneID 51429)	0.104	0.166
24	CCDC177 (GeneID 56936)	0.0812	0.141
25	EEFSEC (GeneID 60678)	0.0753	0.116
26	OBI1 (GeneID 79596)	0.174	0.169
27	ABHD18 (GeneID 80167)	0.0741	0.318
28	ACOT8 (GeneID 10005)	0.229	0.429
29	CDH16 (GeneID 1014)	0.129	0.527
30	CHRM1 (GeneID 1128)	0.209	0.136
31	LY9 (GeneID 4063)	0.0538	0.208
32	HAX1 (GeneID 10456)	0.118	0.743
33	ZNF18 (GeneID 7566)	0.118	0.0918
34	ILF3 (GeneID 3609)	0.0984	0.28
35	WDR45B (GeneID 56270)	0.108	0.19
36	MPP3 (GeneID 4356)	0.0408	0.169
37	ACTR6 (GeneID 64431)	0.182	1.14
38	FRA10AC1 (GeneID 118924)	0.0765	0.279
39	LGI1 (GeneID 9211)	0.136	0.151
40	CIAO3 (GeneID 64428)	0.139	0.167
41	FBXO5 (GeneID 26271)	0.0899	0.103
42	SLF1 (GeneID 84250)	0.11	0.394
43	MED17 (GeneID 9440)	0.168	0.319
44	S100A6 (GeneID 6277)	0.117	0.349
45	WDR48 (GeneID 57599)	0.085	0.118
46	SLCO1B3 (GeneID 28234)	0.102	0.123
47	CHRNA4 (GeneID 1137)	0.0816	0.213
48	UGT1A5 (GeneID 54579)	0.201	0.209
49	APOA2 (GeneID 336)	0.104	0.11
50	HDAC8 (GeneID 55869)	0.0852	0.228
